For at least one compound, name, drawing or mass did not settle the structure. Some entries repeat one wording, which the source may state once for all of them.
Assays:
[1] = system: Mycobacterium tuberculosis Erdman strain (Mtb ATCC 35801); assay: Susceptibility testing (broth microdilution MIC) with or without TIM; format: cell-based; conditions: TIM 10 μg/ml
Mtb Erdman = assay: Mouse infection model (lung CFU); format: in vivo, C57BL/6 mice; conditions: mice, lungs; TIM 200 mg/kg, RIF 10 mg/kg; 4 weeks; FIG. 1

Structure (SMILES): CO[C@H]1/C=C/O[C@@]2(C)Oc3c(C)c(O)c4c(O)c(c(/C=N/N5CCN(C)CC5)c(O)c4c3C2=O)NC(=O)/C(C)=C\C=C\[C@H](C)[C@H](O)[C@@H](C)[C@@H](O)[C@@H](C)[C@H](OC(C)=O)[C@@H]1C [RIF, rifampicin]
- in vitro effect of TIM on the activity of the drug against Mtb [1]: no in vitro effect
- potentiation of the in vivo antibacterial activity by TIM (Mtb Erdman): one log CFU

Structure (SMILES): COc1c(N2C[C@@H]3CCCN[C@@H]3C2)c(F)cc2c(=O)c(C(=O)O)cn(C3CC3)c12 [moxifloxacin]
- in vitro effect of TIM on the activity of the drug against Mtb [1]: no in vitro effect

Structure (SMILES): C[C@H]1COc2c(N3CCN(C)CC3)c(F)cc3c(=O)c(C(=O)O)cn1c23 [levofloxacin]
- in vitro effect of TIM on the activity of the drug against Mtb [1]: no in vitro effect

From patent US20110065723A1, “COMPOSITIONS OF N-BENZYL-3-(4-CHLOROPHENYL)-2-[METHYL-[2-OXO-2-(3,4,5-TRIMETHOXYPHENYL)ACETYL]AMINO]-N-[3-(4-PYRIDYL)-1-[2-(4-PYRIDYL)ETHYL]PROPYL]PROPANAMIDE AND USES THEREOF” (priority 2009, published 2011)
